Over roughly 33,000 sequences, “E-score (-0.5 to 0.5)” has its median near -0.016; the highest 2% begin near 0.3. The list shows a part of the results.
Molecular target: T1, Yer184c (UniProt P39961)
T1 sequence: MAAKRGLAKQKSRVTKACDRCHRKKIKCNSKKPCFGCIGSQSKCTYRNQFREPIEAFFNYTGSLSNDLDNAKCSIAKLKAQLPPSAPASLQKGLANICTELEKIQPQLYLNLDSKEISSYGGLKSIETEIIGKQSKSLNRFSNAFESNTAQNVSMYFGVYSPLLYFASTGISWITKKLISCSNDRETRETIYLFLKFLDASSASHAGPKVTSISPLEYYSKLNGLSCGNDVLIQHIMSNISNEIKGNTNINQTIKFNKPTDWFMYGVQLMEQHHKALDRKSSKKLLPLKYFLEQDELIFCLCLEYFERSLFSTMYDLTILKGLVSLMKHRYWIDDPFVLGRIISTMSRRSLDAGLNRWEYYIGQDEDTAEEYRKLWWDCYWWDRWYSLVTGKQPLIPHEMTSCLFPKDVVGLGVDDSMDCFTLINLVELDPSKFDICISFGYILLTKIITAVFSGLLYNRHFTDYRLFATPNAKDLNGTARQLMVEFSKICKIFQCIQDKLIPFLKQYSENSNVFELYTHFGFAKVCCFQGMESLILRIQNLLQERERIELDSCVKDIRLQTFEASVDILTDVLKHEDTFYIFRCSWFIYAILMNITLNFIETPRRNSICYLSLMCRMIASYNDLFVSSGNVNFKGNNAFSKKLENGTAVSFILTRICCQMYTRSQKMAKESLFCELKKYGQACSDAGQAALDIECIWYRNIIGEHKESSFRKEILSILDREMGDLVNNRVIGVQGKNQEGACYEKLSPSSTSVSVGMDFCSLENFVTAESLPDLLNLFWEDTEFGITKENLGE
Test: PBM E-score (8-mer binding enrichment) (E-score (-0.5 to 0.5)); higher = stronger / more preferred TF binding
Details: protein concentration: 100 nM; construct: GST-full length
How it was run: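 Bound GST-tagged yeast transcription factors, applied at about 100-200 nM to double-stranded universal all-10-mer Agilent arrays, were detected with fluorescent anti-GST. Scans were normalised with masliner. A modified Wilcoxon-Mann-Whitney statistic, the E-score, was assigned to each ungapped eight-base word pooled with its reverse complement by the Universal PBM Analysis Suite.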

Sequence	PBM E-score
AGGAATGC	-0.146
AACAGCAC	0.221
TCTTTCAA	0.0831
GGCCTTGA	-0.0372
CTTTGACC	0.139
ACGTACCA	-0.159
AATCTCTC	0.0453
GCATCGGA	0.307
CGGATTCA	0.0382
GACATGAA	-0.00105
CGCTTTCA	0.092
CGCGCACG	0.0243
AATACTCG	0.0254
CTACAAGA	-0.0493
CGTCTGTC	0.00557
CTCTAACC	-0.181
CAGCTCCG	0.222
AACTATAA	0.0405
TAAGCCTA	0.00373
CTTCTAAC	-0.0757
CGTAGCAG	-0.101
GGACTTCA	-0.158
ACTTGGCA	-0.165
CGACGCAC	-0.0313
GATGGACC	-0.0249

Sequence	PBM E-score
AGCCTATG	-0.201
GTTCTCAA	0.0804
ACTACAAG	-0.0232
ACTTCGCG	0.0108
CTCAGGTC	-0.0546
GCCACCAC	-0.215
CTCAACCC	-0.164
CACTTGCC	-0.14
CATGACCC	-0.322
ATTTATGG	0.0272
CTGCCTAA	-0.11
GGAACAGA	0.134
AAGCGTGC	-0.0432
TCTTTGCA	0.116
CATGTAGC	-0.241
CCGCAGAA	0.142
ATGACCCG	-0.197
GCATACGA	-0.0622
CGTTTTCC	0.0721
CCTCGAAA	0.165
AAGGAGTA	-0.186
CGAACTTA	0.161
CGACGTGC	-0.184
ATCGTCTA	-0.106
AATTGTCG	0.035

Sequence	PBM E-score
TATGGCCA	-0.148
AGTCGACA	0.0802
CTTAACTC	0.122
GGCGATGA	-0.23
AGAGCTCT	-0.391
AGCCCGAG	0.00855
CGGCCAGC	0.172
ACCAGCAC	-0.205
CCAAGCCG	0.0585
TAAGTTGA	0.131
CCCAGAGC	-0.172
GGCATACA	-0.0398
ACAGTCAC	-0.257
ACTTCCCT	-0.101
CAGGCGTA	-0.00314
GAGTGCCC	-0.181
GGTTCACA	0.0396
ATCCGCGA	0.105
AAGGTATA	0.138
TAAGCGCA	-0.214
ACCAATGG	-0.123
CACCCACC	-0.193
CCCCAGAA	-0.161
ACGACTAG	-0.0136
CATGGCGC	-0.0606

Sequence	PBM E-score
CACGACGC	-0.16
ACGGGGCG	0.036
CGCCCGCC	0.0433
AGATTTGC	0.0379
ATCCATTA	0.00687
CGCATCCG	0.185
ATACATCG	0.0194
AACGCATG	-0.106
AGTGCAGA	-0.153
AACAAGTT	0.0697
AGGTCGTA	-0.145
ACTCCTCA	-0.0931
AGTACAGC	0.00983
AAAACCGC	0.0468
ATACAATC	-0.00013
AAACTCCA	-0.0116
AGTCATGG	-0.00924
ACTACCAG	-0.224
CGTGTGGC	-0.296
CTCACACC	-0.234
AATAAAGT	0.155
AGAGAATG	0.0031
TCTATCAA	-0.0404
GCTATGCC	-0.12
CCCTGCTA	-0.272

Sequence	PBM E-score
ATCGCCAA	-0.166
GGGTCGCA	-0.00048
ACCATGCG	-0.0152
CATTGGTA	-0.0178
ATGTCCTC	-0.109
CGCCTATC	-0.183
GCTCTTGA	-0.14
AGTATCCA	-0.00531
ATCAAGAA	0.00831
AAGATGAA	0.0422
ACCCCTAT	-0.315
GTCAACGA	-0.0301
CGACCTGC	-0.0821
CAGTGTGA	0.0148
CGATGTGC	-0.101
TAACGCCA	-0.14
TGATTACA	0.16
AGCTACTG	0.0911
ATGCCTAG	-0.0563
CAACCTCC	-0.262
CAAAACAC	0.102
TAACTACA	0.125
CACCCTCC	-0.122
CGATCCGA	0.305
CTGCGCAA	-0.0246

Two entries drawn at random from the list so far:
Sequence	PBM E-score
CGATCCGA	0.305
GTCAACGA	-0.0301

2 entries from above, reformatted:
Sequence,PBM E-score
GGAACAGA,0.134
ATGACCCG,-0.197

Next part

Sequence	PBM E-score
CTGTATGA	0.111
ACGTAGAG	-0.221
AACGAGCT	-0.0817
AAACCTTC	-0.104
ATGAACTG	0.205
AGTGGAAG	-0.141
CCCGACTC	-0.0899
CCTCAGCG	0.0964
GATTGTTA	0.105
CCAGTAGC	0.0295
ACTCCCAC	-0.135
GATGGCCA	-0.0978
GTGCGTTA	0.128
TGATACAA	0.118
ACCATTCT	-0.124
CACCCTGA	-0.246
GACAGGAA	0.21
AGTGAGAA	0.118
GCTCGCTA	-0.121
AGTACCAT	-0.115
ATAGGAGG	-0.285
TGGAATAA	0.0331
CAGACATG	-0.172
AGCTACCC	-0.139
ATTATGCC	0.16

Sequence	PBM E-score
CGACCGTC	-0.0698
ACAACCGA	0.261
AGCGCGCG	0.0708
AATTCACT	0.133
ACAGTCCT	-0.188
AAACCTCG	0.0132
ATCCTCAC	-0.00718
ATTGAAGA	-0.0543
TCGCACCA	-0.00893
CGCACGGA	0.225
GAGATTAC	-0.0877
CGGTCGCC	0.151
CTACACCC	-0.268
GCGGCCAC	-0.14
CGGTATCC	0.109
TTACCCAA	-0.203
ACCACACT	-0.0486
CTGAGGGC	-0.336
ATAAATAT	0.202
TAGCTTGA	-0.0505
CCCTCGCG	-0.0354
TAGTGCGA	-0.0299

Source: the supplement of paper PMC3334620
